# The other results are listed elsewhere or left out. Residues, ends and D or L forms follow the SMILES beside them. *: point of attachment. Cbz = O=C(OCc1ccccc1)*
# The chains behind the UniProt entries cited, without tags or fusion partners. Where a name states a change or a piece, a line headed by the entry shows the natural chain unless it says otherwise.
# UniProt P27986, whole entry, looked up: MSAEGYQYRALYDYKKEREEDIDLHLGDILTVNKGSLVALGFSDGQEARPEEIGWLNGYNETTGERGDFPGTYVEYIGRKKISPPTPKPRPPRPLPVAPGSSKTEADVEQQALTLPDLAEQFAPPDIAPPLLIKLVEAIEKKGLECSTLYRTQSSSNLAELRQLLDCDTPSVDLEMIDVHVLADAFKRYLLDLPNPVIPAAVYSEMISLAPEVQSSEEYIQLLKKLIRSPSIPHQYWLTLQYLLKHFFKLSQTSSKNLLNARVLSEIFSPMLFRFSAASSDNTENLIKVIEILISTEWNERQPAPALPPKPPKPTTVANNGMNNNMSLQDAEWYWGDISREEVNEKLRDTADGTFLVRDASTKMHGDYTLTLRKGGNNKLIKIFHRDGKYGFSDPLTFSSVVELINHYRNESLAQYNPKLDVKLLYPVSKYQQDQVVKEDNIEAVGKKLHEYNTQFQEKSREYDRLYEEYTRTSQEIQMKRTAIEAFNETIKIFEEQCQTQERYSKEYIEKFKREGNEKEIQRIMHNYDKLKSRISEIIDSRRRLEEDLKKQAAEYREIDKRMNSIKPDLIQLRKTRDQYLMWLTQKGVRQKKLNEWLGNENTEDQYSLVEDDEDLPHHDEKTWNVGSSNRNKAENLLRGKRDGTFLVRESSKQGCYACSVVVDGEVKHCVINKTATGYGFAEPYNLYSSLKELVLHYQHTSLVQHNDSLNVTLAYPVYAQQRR
# UniProt Q8TBX8: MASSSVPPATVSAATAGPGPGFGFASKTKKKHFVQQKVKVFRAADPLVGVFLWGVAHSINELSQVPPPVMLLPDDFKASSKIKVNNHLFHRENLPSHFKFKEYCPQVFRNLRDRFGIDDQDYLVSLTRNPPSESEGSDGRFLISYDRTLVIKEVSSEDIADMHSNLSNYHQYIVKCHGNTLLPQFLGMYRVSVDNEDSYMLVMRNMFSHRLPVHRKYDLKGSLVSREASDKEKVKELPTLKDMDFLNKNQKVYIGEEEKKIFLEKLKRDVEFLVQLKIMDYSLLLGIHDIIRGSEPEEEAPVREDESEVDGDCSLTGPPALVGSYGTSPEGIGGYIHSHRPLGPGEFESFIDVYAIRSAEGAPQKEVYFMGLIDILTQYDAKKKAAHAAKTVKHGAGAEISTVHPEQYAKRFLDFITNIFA
# UniProt P48736: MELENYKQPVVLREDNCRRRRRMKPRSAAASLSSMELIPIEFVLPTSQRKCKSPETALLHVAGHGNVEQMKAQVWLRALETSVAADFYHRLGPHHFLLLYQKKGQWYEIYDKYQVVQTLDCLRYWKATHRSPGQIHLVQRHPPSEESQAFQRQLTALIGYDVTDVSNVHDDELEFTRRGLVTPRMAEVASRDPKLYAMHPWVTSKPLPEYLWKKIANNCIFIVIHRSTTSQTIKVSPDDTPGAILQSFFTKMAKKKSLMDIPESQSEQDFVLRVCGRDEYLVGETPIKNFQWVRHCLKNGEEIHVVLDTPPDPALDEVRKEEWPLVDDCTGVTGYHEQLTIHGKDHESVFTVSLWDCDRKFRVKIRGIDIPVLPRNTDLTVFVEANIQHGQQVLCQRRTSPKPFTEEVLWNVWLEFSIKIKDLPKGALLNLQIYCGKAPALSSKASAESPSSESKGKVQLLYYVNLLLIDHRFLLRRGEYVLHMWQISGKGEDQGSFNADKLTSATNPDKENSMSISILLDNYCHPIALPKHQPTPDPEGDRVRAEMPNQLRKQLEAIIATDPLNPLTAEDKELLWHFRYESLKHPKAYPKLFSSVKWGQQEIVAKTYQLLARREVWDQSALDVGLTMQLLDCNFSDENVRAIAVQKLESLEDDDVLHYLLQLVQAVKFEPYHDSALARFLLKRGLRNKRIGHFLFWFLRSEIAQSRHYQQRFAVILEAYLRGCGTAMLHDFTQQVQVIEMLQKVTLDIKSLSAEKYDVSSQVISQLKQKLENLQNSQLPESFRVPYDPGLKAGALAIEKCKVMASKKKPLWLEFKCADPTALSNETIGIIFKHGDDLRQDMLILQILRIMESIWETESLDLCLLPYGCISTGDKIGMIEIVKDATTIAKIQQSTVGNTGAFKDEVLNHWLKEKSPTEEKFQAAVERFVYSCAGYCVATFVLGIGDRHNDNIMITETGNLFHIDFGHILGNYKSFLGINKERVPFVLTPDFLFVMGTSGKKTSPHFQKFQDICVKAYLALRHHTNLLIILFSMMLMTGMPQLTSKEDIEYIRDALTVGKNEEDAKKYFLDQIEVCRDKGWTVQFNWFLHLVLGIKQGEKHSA
# UniProt Q8TCD6: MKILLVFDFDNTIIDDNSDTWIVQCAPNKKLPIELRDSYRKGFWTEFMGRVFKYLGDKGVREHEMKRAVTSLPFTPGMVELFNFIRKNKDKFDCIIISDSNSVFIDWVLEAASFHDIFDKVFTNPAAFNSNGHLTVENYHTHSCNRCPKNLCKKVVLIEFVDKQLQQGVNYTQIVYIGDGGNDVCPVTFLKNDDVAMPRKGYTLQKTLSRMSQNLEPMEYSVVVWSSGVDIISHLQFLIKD
# UniProt Q9Y2I7: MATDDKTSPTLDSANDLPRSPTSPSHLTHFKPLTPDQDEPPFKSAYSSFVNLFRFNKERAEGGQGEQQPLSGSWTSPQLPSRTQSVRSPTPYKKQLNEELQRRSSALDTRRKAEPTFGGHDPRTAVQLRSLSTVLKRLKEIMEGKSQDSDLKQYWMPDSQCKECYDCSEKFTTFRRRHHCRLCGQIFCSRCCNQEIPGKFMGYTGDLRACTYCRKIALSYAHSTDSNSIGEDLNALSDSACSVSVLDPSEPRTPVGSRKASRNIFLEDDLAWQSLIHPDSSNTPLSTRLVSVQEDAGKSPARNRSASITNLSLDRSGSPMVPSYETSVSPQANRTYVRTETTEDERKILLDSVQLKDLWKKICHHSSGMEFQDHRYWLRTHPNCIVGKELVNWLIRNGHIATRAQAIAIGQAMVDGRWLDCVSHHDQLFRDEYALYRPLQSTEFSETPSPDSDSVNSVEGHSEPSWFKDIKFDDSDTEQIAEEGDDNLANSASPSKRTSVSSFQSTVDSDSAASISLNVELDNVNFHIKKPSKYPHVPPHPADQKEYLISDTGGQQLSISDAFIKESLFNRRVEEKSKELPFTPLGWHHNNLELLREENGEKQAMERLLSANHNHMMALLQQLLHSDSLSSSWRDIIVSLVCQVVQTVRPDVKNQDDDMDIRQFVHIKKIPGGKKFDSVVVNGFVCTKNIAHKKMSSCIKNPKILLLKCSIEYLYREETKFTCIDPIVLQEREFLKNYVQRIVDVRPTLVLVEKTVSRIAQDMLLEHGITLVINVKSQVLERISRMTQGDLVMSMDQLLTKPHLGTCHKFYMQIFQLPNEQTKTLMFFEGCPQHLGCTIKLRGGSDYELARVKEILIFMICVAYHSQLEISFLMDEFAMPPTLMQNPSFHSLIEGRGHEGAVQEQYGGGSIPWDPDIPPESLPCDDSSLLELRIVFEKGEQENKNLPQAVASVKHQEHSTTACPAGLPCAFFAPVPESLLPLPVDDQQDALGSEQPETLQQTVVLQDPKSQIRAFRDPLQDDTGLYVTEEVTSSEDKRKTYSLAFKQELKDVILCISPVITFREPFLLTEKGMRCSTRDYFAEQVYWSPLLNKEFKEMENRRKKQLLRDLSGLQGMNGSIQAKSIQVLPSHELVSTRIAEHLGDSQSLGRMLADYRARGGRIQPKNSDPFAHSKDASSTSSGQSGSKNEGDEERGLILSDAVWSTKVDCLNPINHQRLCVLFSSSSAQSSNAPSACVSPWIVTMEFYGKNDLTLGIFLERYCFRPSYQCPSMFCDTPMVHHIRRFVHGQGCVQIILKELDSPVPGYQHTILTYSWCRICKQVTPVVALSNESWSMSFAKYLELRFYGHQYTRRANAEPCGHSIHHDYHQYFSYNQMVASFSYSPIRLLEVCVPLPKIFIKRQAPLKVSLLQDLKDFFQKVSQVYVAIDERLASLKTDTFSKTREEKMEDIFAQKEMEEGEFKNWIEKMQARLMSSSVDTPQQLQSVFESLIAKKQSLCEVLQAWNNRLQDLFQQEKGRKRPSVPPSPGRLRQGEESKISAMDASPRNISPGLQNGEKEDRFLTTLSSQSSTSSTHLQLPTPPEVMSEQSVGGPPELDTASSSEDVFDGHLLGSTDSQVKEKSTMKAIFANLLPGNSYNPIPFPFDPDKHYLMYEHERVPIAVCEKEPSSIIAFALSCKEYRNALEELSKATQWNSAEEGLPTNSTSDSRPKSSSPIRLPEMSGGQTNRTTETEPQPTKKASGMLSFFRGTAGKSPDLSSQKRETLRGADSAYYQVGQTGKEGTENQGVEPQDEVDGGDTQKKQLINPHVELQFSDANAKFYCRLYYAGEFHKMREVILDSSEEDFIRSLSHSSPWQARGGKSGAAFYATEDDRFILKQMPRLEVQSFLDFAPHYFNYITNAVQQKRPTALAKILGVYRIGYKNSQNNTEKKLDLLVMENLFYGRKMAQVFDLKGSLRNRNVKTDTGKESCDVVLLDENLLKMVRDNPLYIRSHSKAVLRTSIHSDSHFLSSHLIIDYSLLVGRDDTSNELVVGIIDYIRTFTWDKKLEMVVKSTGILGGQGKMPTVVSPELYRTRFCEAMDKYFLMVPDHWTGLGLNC
# UniProt P14618, whole entry, looked up: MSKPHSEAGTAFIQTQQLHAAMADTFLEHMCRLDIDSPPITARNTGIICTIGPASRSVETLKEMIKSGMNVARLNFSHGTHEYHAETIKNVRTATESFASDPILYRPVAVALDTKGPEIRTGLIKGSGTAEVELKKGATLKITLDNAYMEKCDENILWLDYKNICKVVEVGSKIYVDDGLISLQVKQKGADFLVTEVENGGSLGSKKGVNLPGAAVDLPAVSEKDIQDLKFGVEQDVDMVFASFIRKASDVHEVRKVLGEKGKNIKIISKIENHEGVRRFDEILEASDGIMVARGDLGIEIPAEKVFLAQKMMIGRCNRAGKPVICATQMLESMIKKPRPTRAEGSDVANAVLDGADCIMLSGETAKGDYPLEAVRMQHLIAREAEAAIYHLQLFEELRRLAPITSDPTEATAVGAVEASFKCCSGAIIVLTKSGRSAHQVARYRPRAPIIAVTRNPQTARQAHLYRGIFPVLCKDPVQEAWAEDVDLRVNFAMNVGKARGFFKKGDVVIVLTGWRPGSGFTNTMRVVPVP
# UniProt P55347: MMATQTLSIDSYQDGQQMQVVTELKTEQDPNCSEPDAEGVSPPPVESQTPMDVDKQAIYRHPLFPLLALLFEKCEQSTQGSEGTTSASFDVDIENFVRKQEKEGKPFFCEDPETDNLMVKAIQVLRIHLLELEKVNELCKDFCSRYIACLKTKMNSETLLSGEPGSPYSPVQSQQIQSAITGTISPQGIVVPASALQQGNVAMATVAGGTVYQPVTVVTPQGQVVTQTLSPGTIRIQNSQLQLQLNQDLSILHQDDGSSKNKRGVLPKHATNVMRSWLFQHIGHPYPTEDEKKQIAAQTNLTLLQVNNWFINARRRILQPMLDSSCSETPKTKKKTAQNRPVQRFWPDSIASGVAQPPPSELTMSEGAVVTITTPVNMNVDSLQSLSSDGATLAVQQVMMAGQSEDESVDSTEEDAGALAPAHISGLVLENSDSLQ
# UniProt Q9Y5Y5: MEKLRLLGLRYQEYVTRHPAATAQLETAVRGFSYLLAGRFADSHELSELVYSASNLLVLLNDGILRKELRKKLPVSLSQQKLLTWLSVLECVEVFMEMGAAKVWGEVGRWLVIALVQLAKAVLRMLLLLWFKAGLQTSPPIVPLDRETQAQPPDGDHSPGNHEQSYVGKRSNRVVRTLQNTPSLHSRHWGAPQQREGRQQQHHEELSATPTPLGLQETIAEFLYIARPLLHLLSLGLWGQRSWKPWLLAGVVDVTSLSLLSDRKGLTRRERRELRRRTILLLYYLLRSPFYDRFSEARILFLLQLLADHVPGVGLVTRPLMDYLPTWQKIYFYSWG
# UniProt O00625: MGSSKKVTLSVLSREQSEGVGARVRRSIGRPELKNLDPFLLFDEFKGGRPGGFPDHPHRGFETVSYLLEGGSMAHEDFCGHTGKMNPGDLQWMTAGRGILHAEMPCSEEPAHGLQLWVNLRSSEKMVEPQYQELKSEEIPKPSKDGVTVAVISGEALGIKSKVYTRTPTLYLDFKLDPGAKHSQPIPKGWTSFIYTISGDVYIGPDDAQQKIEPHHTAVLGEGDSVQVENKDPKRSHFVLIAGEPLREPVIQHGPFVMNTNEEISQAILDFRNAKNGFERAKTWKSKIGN
# UniProt P48426: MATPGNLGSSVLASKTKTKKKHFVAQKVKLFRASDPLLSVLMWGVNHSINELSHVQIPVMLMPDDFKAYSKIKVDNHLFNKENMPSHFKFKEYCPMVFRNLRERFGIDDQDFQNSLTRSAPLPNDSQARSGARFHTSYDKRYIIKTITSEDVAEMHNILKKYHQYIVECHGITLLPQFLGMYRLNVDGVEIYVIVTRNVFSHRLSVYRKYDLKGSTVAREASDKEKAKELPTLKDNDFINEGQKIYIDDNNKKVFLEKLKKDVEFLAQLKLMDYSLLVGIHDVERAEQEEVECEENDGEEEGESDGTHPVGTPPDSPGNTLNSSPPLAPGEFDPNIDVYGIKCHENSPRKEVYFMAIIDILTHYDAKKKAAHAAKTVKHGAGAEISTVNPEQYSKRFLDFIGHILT
# Assays:
# Test in all cases: log2 fold change, soluble protein after heating vs DMSO (PISA); higher = thermal stabilisation; K562 cells, 10 uM, 30 min; active = over 0.2 and 3.5 SD of the protein, either way, in both replicates (recomputed)
# erlotinib = compound: C#Cc1cccc(Nc2ncnc3cc(OCCOC)c(OCCOC)cc23)c1 [erlotinib]
# Outline: (§1)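 Quantification of soluble protein used TMTpro 16plex LC-MS/MS, with channel sums equalised. Samples were the supernatant after 21,000xg for 90 min of pooled aliquots from K562 cells (2×10^6 cells/mL) treated with 10 μM compound for 30 min, heated for 3 min over 48°C-58°C, and extracted in PBS with 0.5% NP-40 at 4°C. Values, from duplicates, describe thermal stability against control samples on a log2 fold-change scale.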
# [1] = compound: C/C(=N\NC(=O)C1=CC(=CC=C1)S(=O)(=O)N2CCOCC2)/C3=C(C=CC(=C3)Cl)O
# Outline: as §1
# [2] = compound: C1=CC(=C(C=C1Cl)C2=NC3=NC=CN=C3C(=N2)NC4=CC=NC=C4)F
# Outline: as §1
# [3] = compound: C1=CC(=CC=C1C2=NC3=C(N2)C=C(C=C3)C(=O)N)OC4=CC=C(C=C4)Cl
# Outline: as §1
# [4] = compound: C1=CC2=C(C=CC(=C2)/C=C\3/C(=O)NC(=NCC4=CC=CS4)S3)N=C1
# Outline: as §1
# [5] = compound: C1=CC2=NC=CN=C2C=C1/C=C/3\C(=O)NC(=O)S3
# Outline: as §1
# [6] = compound: C1=CC=C(C=C1)C2=NC(=C(N2)C3=CC=NC=C3)C4=CC(=C(C=C4)Cl)O
# Outline: as §1
# [7] = compound: C1=CC=C2C(=C1)C3=NNC4=CC=CC(=C43)C2=O
# Outline: as §1
# [8] = compound: C1CCN(C1)C(=O)NC2=CC=CC(=C2)NC3=NC=C(C(=N3)NCCC4=CN=CN4)Br
# Outline: as §1
# [9] = compound: C1CN(CCC1(CC2=CC=C(C=C2)Cl)N)C3=NC=NC4=C3C=CN4
# Outline: as §1
# IRAK-1-4 Inhibitor I = compound: C1COCCN1CCN2C3=CC=CC=C3N=C2NC(=O)C4=CC(=CC=C4)[N+](=O)[O-] [IRAK-1-4 Inhibitor I]
# Outline: as §1
# ibrutinib = compound: C=CC(=O)N1CCC[C@@H](n2nc(-c3ccc(Oc4ccccc4)cc3)c3c(N)ncnc32)C1 [ibrutinib]
# Outline: as §1
# [10] = compound: CC(=O)c1cnc2ccc(-c3cc(Cl)c(O)c(Cl)c3)nc2c1N[C@H]1CC[C@H](CN(C)C)CC1
# Outline: as §1
# ralimetinib = compound: CC(C)(C)Cn1c(N)nc2ccc(-c3[nH]c(C(C)(C)C)nc3-c3ccc(F)cc3)nc21 [ralimetinib]
# Outline: as §1
# [11] = compound: CC(C)(O)CC(=O)NCCn1ccc2ncnc(Nc3ccc(Oc4cccc(C(F)(F)F)c4)c(Cl)c3)c21
# Outline: as §1
# [12] = compound: CC(C)C1=C2N=C(C=C(N2N=C1)NCC3=CC=CC=C3)NCCCCCCN
# Outline: as §1
# [13] = compound: CC(C)C[C@@H](C=O)NC(=O)[C@H](CC(C)C)NC(=O)[C@H](CC(C)C)NC(=O)OCc1ccccc1
# Outline: as §1
# pinometostat = compound: CC(C)N(C[C@H]1O[C@@H](n2cnc3c(N)ncnc32)[C@H](O)[C@@H]1O)[C@H]1C[C@@H](CCc2nc3cc(C(C)(C)C)ccc3[nH]2)C1 [pinometostat]
# Outline: as §1
# [14] = compound: CC1=C(C2=C(C=C1)C(=O)C3=CC=CC=C3N2CCCN)C
# Outline: as §1
# [15] = compound: CC1=C(C(CC(=O)N1)C2=CC=C(C=C2)C(F)(F)F)C(=O)NC3=C(C=C4C(=C3)C=NN4)F
# Outline: as §1
Target,log2 fold change (erlotinib),log2 fold change [1],log2 fold change [2],log2 fold change [3],log2 fold change [4],log2 fold change [5],log2 fold change [6],log2 fold change [7],log2 fold change [8],log2 fold change [9],log2 fold change (IRAK-1-4 Inhibitor I),log2 fold change (ibrutinib),log2 fold change [10],log2 fold change (ralimetinib),log2 fold change [11],log2 fold change [12],log2 fold change [13],log2 fold change (pinometostat),log2 fold change [14],log2 fold change [15]
PIK3R1 (UniProt P27986),inactive: 0.01,inactive: 0.033,inactive: 0.025,inactive: 0.048,inactive: 0.036,inactive: 0.14,inactive: -0.022,inactive: -0.027,inactive: -0.024,inactive: 0.05,inactive: 0.032,inactive: -0.004,inactive: 0.077,inactive: 0.038,inactive: -0.04,inactive: -0.011,inactive: 0.027,inactive: 0.083,inactive: 0.072,
PGS1 (UniProt Q32NB8),inactive: 0.011,inactive: 0.051,inactive: 0.137,inactive: 0.074,inactive: 0.029,inactive: -0.009,,inactive: 0.013,inactive: -0.201,inactive: 0.085,inactive: -0.072,inactive: -0.071,inactive: -0.042,,inactive: -0.128,inactive: -0.105,,inactive: -0.034,inactive: 0.127,inactive: -0.04
PIP4K2C (UniProt Q8TBX8),inactive: 0.482,inactive: -0.063,inactive: 0.023,inactive: -0.129,inactive: 0.059,inactive: 0.575,inactive: 0.139,inactive: 0.21,inactive: 0.493,inactive: -0.025,inactive: 0.607,inactive: 0.064,active: 1.48,inactive: -0.019,inactive: -0.14,inactive: 0.095,inactive: 0.003,inactive: -0.006,inactive: 0.018,
PLCG1 isoform 2 (UniProt P19174),inactive: 0.052,inactive: -0.054,inactive: -0.09,inactive: 0.067,inactive: 0.119,inactive: 0.029,inactive: 0.006,inactive: 0.017,inactive: 0.052,inactive: -0.06,inactive: -0.079,inactive: 0.03,inactive: 0.041,inactive: -0.042,active: -0.362,inactive: -0.23,inactive: 0.007,inactive: 0.069,inactive: -0.027,
PIK3CG (UniProt P48736),inactive: -0.133,inactive: -0.512,inactive: -0.074,inactive: 0.029,inactive: 0.361,,,inactive: -0.347,,,inactive: -0.258,,inactive: -0.261,,inactive: -0.011,inactive: -0.201,,inactive: -0.252,,
PEX26 (UniProt Q7Z412),inactive: -0.059,inactive: -0.004,inactive: -0.071,inactive: -0.014,inactive: 0.239,,inactive: -0.101,inactive: -0.16,inactive: -0.145,inactive: 0.188,inactive: -0.062,,inactive: -0.08,inactive: -0.099,inactive: -0.383,inactive: 0.057,inactive: 0.165,inactive: 0.08,inactive: 0.164,inactive: 0.021
PKN1 isoform 2 (UniProt Q16512),inactive: 0.018,inactive: 0.088,inactive: 0.064,inactive: 0.055,inactive: 0.059,inactive: 0,inactive: 0.011,inactive: 0,inactive: -0.061,active: -0.326,inactive: -0.014,inactive: -0.018,active: -1.2,inactive: 0.006,inactive: -0.09,inactive: -0.038,inactive: 0.002,inactive: 0.057,inactive: 0.047,
PIGG (UniProt Q5H8A4),inactive: -0.002,inactive: 0.016,inactive: -0.009,inactive: 0.027,inactive: 0.023,inactive: 0.014,inactive: -0.013,inactive: -0.003,inactive: -0.016,inactive: 0.067,inactive: 0.004,inactive: -0.039,inactive: -0.032,inactive: 0.168,inactive: 0.015,inactive: -0.046,inactive: 0.005,inactive: 0.027,inactive: 0.018,
PHOSPHO2 (UniProt Q8TCD6),inactive: 0.013,inactive: 0.044,,inactive: -0.034,inactive: 0.036,inactive: 0.039,inactive: 0.154,inactive: -0.032,inactive: 0.077,inactive: -0.309,inactive: -0.052,inactive: -0.084,inactive: -0.032,inactive: -0.222,,inactive: 0.01,inactive: -0.12,inactive: -0.04,inactive: 0.038,
PIKFYVE (UniProt Q9Y2I7),inactive: -0.174,inactive: 0.111,inactive: 0.082,inactive: 0.082,inactive: -0.007,inactive: 0.075,inactive: 0.04,inactive: -0.014,inactive: 0.037,inactive: -0.108,inactive: -0.032,inactive: -0.097,inactive: -0.07,inactive: -0.002,inactive: -0.145,inactive: -0.256,inactive: 0.063,inactive: 0.006,inactive: 0.012,
PKM (UniProt P14618),inactive: 0.008,inactive: -0.005,inactive: 0.052,inactive: 0.003,inactive: 0.002,inactive: -0.003,inactive: -0.016,inactive: -0.011,inactive: -0.006,inactive: 0.029,inactive: 0.012,,inactive: -0.011,inactive: -0.018,inactive: -0.02,inactive: 0.079,inactive: -0.013,inactive: -0.033,inactive: 0.036,
PKNOX1 (UniProt P55347),inactive: -0.145,inactive: 0.06,,inactive: 0.177,inactive: 0.261,,,inactive: -0.022,,,,,inactive: -0.128,,,inactive: 0.086,,,,
PHKA1 (UniProt P46020),inactive: -0.028,inactive: -0.101,inactive: -0.051,inactive: 0.003,inactive: 0.057,inactive: 0.024,inactive: 0.152,inactive: -0.095,inactive: -0.105,inactive: -0.026,inactive: -0.043,inactive: -0.001,inactive: 0.306,inactive: -0.03,inactive: -0.161,inactive: 0.011,inactive: 0.195,inactive: -0.023,inactive: 0.022,
PFN1 (UniProt I3L3D5),inactive: 0.09,inactive: -0.091,inactive: -0.207,inactive: 0.129,inactive: 0.344,inactive: -0.172,inactive: -0.124,inactive: -0.198,inactive: 0.21,inactive: 0.045,inactive: 0.053,inactive: 0.093,inactive: -0.043,inactive: -0.136,inactive: 0.159,inactive: 0.042,inactive: 0.259,inactive: 0.053,inactive: 0.037,
PIGW (UniProt Q7Z7B1),inactive: 0.147,inactive: 0.091,inactive: 0.085,inactive: -0.044,inactive: 0.09,inactive: -0.085,,inactive: -0.012,inactive: 0.09,inactive: 0.129,,inactive: 0.053,inactive: -0.075,,inactive: -0.054,inactive: -0.278,,,inactive: 0.055,inactive: 0.081
PEX16 isoform 2 (UniProt Q9Y5Y5),inactive: 0.081,inactive: -0.044,inactive: 0.147,inactive: 0.013,inactive: 0.085,inactive: 0.06,inactive: 0.008,inactive: -0.004,inactive: -0.031,inactive: 0.051,inactive: -0.068,inactive: -0.059,inactive: -0.025,inactive: -0.104,inactive: -0.067,active: -0.407,inactive: 0.033,inactive: -0.052,inactive: 0.136,
PIR (UniProt O00625),inactive: -0.027,inactive: -0.058,inactive: 0.025,active: 0.464,inactive: 0.111,inactive: 0.031,inactive: -0.027,active: 0.225,inactive: -0.053,inactive: -0.002,inactive: -0.016,inactive: 0.019,inactive: 0.016,inactive: -0.056,inactive: 0.073,inactive: 0.011,inactive: -0.042,inactive: -0.01,inactive: 0.037,
PIP4K2A (UniProt P48426),inactive: 0.172,inactive: 0.028,inactive: 0.075,inactive: -0.058,inactive: -0.065,inactive: 0.287,inactive: 0.108,inactive: 0.076,inactive: 0.162,inactive: -0.013,inactive: 0.115,inactive: -0.03,active: 0.749,inactive: -0.068,inactive: -0.108,inactive: 0.074,inactive: 0.018,inactive: -0.067,inactive: -0.02,

# Rewritten with tabs: entries from further up
Target	log2 fold change (erlotinib)	log2 fold change [1]	log2 fold change [2]	log2 fold change [3]	log2 fold change [4]	log2 fold change [5]	log2 fold change [6]	log2 fold change [7]	log2 fold change [8]	log2 fold change [9]	log2 fold change (IRAK-1-4 Inhibitor I)	log2 fold change (ibrutinib)	log2 fold change [10]	log2 fold change (ralimetinib)	log2 fold change [11]	log2 fold change [12]	log2 fold change [13]	log2 fold change (pinometostat)	log2 fold change [14]	log2 fold change [15]
PLCG1 isoform 2 (UniProt P19174)	inactive: 0.052	inactive: -0.054	inactive: -0.09	inactive: 0.067	inactive: 0.119	inactive: 0.029	inactive: 0.006	inactive: 0.017	inactive: 0.052	inactive: -0.06	inactive: -0.079	inactive: 0.03	inactive: 0.041	inactive: -0.042	active: -0.362	inactive: -0.23	inactive: 0.007	inactive: 0.069	inactive: -0.027	
PKNOX1 (UniProt P55347)	inactive: -0.145	inactive: 0.06		inactive: 0.177	inactive: 0.261			inactive: -0.022					inactive: -0.128			inactive: 0.086				

# Source: the supplement of paper PMC10849652
